These are yes or no findings as the source states them, for the method shown. In cells and extracts the contact can be indirect. Some results given as binding are weak or reduced against the parent protein; the word gives no strength. Tags and fused reporters may be left off the sequences shown.
Experiments:
[1] = target: T1, GFP-tagged syntabulin (GFP-SYBU) (UniProt Q9NX95); test: co-IP
T1 sequence: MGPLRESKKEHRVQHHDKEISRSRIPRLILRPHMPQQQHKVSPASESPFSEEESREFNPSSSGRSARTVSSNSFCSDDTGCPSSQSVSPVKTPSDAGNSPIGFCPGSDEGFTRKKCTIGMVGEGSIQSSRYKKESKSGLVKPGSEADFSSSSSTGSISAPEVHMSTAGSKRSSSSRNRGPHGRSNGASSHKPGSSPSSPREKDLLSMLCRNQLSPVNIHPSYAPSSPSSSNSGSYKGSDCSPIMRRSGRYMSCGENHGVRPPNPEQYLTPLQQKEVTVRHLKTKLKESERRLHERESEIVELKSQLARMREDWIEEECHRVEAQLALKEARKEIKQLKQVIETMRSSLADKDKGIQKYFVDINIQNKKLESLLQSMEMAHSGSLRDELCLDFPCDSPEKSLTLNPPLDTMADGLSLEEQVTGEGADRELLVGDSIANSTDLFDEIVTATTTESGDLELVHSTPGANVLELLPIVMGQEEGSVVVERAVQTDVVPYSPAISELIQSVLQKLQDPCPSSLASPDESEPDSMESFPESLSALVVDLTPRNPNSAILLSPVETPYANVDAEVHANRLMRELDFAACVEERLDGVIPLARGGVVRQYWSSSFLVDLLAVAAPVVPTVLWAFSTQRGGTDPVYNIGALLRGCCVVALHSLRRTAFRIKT

The chains behind the UniProt entries cited, without tags or fusion partners.
UniProt P63167: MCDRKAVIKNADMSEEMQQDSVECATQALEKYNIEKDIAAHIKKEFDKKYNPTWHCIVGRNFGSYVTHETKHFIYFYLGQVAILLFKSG
UniProt P33176: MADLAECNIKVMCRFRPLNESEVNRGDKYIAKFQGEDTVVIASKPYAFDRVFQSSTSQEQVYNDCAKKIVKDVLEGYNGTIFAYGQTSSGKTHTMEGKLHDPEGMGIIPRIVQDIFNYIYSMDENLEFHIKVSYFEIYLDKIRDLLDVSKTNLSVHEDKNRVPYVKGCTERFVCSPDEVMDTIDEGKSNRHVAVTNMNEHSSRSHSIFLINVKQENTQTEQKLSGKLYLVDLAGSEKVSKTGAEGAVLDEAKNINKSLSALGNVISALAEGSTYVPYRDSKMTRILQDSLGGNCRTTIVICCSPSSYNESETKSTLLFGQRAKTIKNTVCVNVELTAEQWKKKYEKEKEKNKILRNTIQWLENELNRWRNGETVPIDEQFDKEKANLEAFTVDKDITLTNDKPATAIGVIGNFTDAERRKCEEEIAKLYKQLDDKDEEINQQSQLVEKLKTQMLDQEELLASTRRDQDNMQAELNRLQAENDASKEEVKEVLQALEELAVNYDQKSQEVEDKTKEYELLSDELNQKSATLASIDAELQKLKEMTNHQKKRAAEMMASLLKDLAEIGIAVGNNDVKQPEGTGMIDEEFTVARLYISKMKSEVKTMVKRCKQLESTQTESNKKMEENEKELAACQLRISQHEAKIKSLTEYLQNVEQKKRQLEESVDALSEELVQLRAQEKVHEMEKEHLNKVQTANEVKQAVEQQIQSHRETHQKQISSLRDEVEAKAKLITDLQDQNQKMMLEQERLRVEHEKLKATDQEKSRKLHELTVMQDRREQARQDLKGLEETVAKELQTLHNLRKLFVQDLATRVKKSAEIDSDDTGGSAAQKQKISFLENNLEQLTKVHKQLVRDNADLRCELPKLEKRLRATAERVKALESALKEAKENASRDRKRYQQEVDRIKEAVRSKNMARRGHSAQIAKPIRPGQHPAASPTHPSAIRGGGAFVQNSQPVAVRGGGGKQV

[2] = target: T1, GFP-tagged syntabulin (GFP-SYBU); test: proximity ligation

| binding [1] | binding [2] | Substance |
| --- | --- | --- |
| binds | binds | dynein light chain 1 DYNLL1 (LC8) (from UniProt P63167 1-89) |
| no binding | – | kinesin-1 motor protein KIF5B (from UniProt P33176 1-963) |
